Data as given in PMC12748396.

Target: T1, Trem2 (triggering receptor expressed on myeloid cells 2), overexpressed by lentivirus in macrophages (UniProt Q99NH8)
T1 sequence: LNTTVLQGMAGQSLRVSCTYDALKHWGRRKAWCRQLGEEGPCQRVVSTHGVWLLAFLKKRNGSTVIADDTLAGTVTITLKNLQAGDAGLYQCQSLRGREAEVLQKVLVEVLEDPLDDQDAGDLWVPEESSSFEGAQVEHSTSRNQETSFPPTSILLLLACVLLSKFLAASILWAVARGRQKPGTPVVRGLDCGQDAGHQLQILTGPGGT
Assay: affinity purification with mass spectrometry; immunoprecipitation of 1 x 10^7 Trem2-overexpressing macrophages stimulated with Ang II for 72 h (Millipore protocol 17-500); bands from 4-12% SDS-PAGE digested with trypsin, LC-MS/MS

B1: Interleukin-13, endogenous in senescent mouse macrophages (ligand, UniProt P20109 19-131)
chain: APGPVPRSVSLPLTLKELIEELSNITQDQTPLCNGSMVWSVDLAAGGFCVALDSLTNISNCNAIYRTQRILHGLCNRKAPTTVSSLPDTKIEVAHFITKLLSYTKQLFRHGPF
- binding: binds

Results are given in words; binding and its absence hold for the method and conditions named. In cells and extracts the contact can be indirect. Here binding means that the protein was enriched with, or labelled near, the bait; the list need not be complete.
